# Measured values from PubChem BioAssay AID1671190 (National Center for Advancing Translational Sciences (NCATS), 2021).
# The chains behind the UniProt entries cited, without tags or fusion partners. Where a name states a change or a piece, a line headed by the entry shows the natural chain unless it says otherwise.
# UniProt P18054: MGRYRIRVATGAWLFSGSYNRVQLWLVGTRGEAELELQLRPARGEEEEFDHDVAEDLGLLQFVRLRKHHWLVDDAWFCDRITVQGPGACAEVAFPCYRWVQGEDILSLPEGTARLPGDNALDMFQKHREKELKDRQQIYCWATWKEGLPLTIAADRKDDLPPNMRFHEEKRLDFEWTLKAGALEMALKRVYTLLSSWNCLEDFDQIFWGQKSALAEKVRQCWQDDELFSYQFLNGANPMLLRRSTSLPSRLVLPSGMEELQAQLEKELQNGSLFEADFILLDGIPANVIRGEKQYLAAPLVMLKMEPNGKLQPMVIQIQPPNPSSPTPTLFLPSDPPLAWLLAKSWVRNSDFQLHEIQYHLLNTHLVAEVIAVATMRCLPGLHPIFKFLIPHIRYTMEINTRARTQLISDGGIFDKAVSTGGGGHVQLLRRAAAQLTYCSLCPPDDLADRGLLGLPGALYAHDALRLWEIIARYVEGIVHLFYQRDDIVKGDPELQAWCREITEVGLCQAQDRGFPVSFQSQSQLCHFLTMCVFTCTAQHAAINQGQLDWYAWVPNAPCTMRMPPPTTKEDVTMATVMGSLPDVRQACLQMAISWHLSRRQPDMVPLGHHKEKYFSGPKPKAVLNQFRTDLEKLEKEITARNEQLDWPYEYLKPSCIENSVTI
# Hit rate of the full screen: of about 580,000 compounds, about 6,100 (1.1%) were called active. The inconclusive results got no clear call from the source; some entries with a clear call stand among them for comparison. Calls come from the whole dose curve; as a rule, active = well fitted inhibition curve with a large enough effect; inconclusive = small, poorly fitted or top-dose-only effect, or another doubt; inactive = no such curve, though single readings can be large or run the other way. Potencies of inconclusive entries are doubtful fits and often do not repeat.
# Molecular target: Polyunsaturated fatty acid lipoxygenase ALOX12 (Homo sapiens) (UniProt P18054)
# Assay: Primary qHTS assay for inhibitors of human arachidonate 12S-lipoxygenase (ALOX12): Round 2
# Details: purified 12hLO, xylenol orange hydroperoxide absorbance; activity change, negative = inhibition: at 108 µM (top of the series) unless noted
# How it was run: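 Hydroperoxide product was detected by ferrous iron/xylenol orange as the 573 to 405 nm absorbance ratio. Arachidonic acid at 40 uM (final) was turned over for 30 min at room temperature by 150 nM human 12hLO, pH 7.0 Hepes buffer, after 15 min compound preincubation.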
# % is set by controls: 0 for no effect and ±100 for the full control effect; potency is the fitted concentration of half-maximal effect.
Structure (SMILES),Potency,"activity change, negative = inhibition"
CCOP(=O)(c1ccccc1)c1nc(-c2ccccc2C)oc1NCc1ccccc1 (stereo not given),"inconclusive: 112 µM [inhibitor, single point]",
O=C1NCc2ccccc2CC12CCCN2Cc1ccc(Cl)cc1 (stereo not given),"inconclusive: 56.2 µM [inhibitor, partial curve, poor fit]",
COCCNc1ncc(C(=O)O)c(-c2cc(F)cc(F)c2)n1,"inconclusive: 8.91 µM [inhibitor, partial curve, poor fit]",
CCOC(=O)[C@H]1[C@H]2COc3ccc(Br)cc3[C@H]2N2C(=O)CN(CCc3c[nH]c4ccccc34)C(=O)[C@@]12C,"inconclusive: 35.5 µM [inhibitor, partial curve, poor fit]",
Cc1noc(C)c1S(=O)(=O)N1CCC(C(=O)N2CCN(Cc3ccc4c(c3)OCO4)CC2)CC1,"inconclusive: 158 µM [inhibitor, partial curve, poor fit]",
Cc1ccc(NC(=O)CN2CCOCC2)cc1Cl,,inactive: 6.8%
COCCNc1c2c(nc3ccccc13)CCC2,,inactive: -2.15%
COc1ccc2[nH]c(=O)c(CN(C3CCCCC3)S(=O)(=O)c3ccccc3)cc2c1,"inconclusive: 39.8 µM [inhibitor, partial curve, poor fit]",
CCOc1ccc2c(c1)nc(SCC(=O)c1ccc(Br)s1)n2C,"inconclusive: 10 µM [inhibitor, full curve, poor fit]",
Cc1ccc(NC(=O)C(Nc2cccc(C)c2)c2ccccc2)cc1 (stereo not given),,inactive: -20.8%
Cc1ccc2nc(SC(Cc3cc(Cl)ccc3Cl)C(=O)O)[nH]c2c1 (stereo not given),,inactive: 2.75%
CCCSc1nc2c(cnn2-c2ccc(Cl)cc2)c(=O)[nH]1,"inconclusive: 63.1 µM [inhibitor, partial curve, poor fit]",
COc1ccc(C2CC(=O)Oc3cc(O)ccc32)cc1 (stereo not given),"inconclusive: 89.1 µM [inhibitor, partial curve, poor fit]",
CC(C)CC1C(=O)N(Cc2cn(CCC3OCCO3)nn2)CCS(=O)(=O)N1Cc1ccc(-c2cccc(CO)c2)cc1 (stereo not given),"inconclusive: 112 µM [inhibitor, partial curve, poor fit]",
CC(=O)c1cccc(-c2ccnc3c2CC(C(=O)NCc2ccco2)O3)c1 (stereo not given),,inactive: -1.03%
Cc1cccc(NC(=O)COC(=O)c2nn(C)c(=O)c3ccccc23)c1C,"inconclusive: 112 µM [inhibitor, single point]",
CC1(C)[C@H](Cc2cc(CC3CCCCC3)on2)C[C@@H]1NC(=O)C1CCCC1,"inconclusive: 56.2 µM [inhibitor, partial curve, poor fit]",
O=C(C1CCc2nnc(-c3ccc(Cl)cc3Cl)n21)N1CCCC1 (stereo not given),"inconclusive: 25.1 µM [inhibitor, full curve, poor fit]",
COc1ccc(NC(=O)COC(=O)c2cc(S(=O)(=O)N3CCCC3)ccc2O)cc1,"inconclusive: 44.7 µM [inhibitor, partial curve, poor fit]",
CC(C)C(=O)N/N=C/c1cccs1,,inactive: -0.474%

Structure (SMILES),Potency,"activity change, negative = inhibition"
CC(Oc1ccccc1)C(=O)N1CCC(n2cc(-c3nc(C4CC4)no3)nn2)C1 (stereo not given),"inconclusive: 50.1 µM [inhibitor, partial curve]",
COc1ccc(CN2CCOc3nc(-c4cccc(NC(C)=O)c4)ncc3C2=O)cc1,,inactive: 8.77% [at 176 µM]
Cc1cccc(C(=O)NCc2nc(-c3ccccc3NC(=O)C3CCCO3)oc2C)c1 (stereo not given),"inconclusive: 100 µM [inhibitor, partial curve, poor fit]",
CCOC(=O)c1cc(-c2ccccc2)nn1Cc1ccccc1,"inconclusive: 39.8 µM [inhibitor, partial curve, poor fit]",
Cc1ncc(S(C)(=O)=O)c(NCCn2nc(C)nc2C)n1,"inconclusive: 12.6 µM [inhibitor, partial curve, poor fit]",
O=[N+]([O-])c1ccccc1Nc1ccccc1[N+](=O)[O-],"inconclusive: 112 µM [inhibitor, single point]",
Cc1ccc(NC(=S)NCC(C)CSc2ccc(Cl)cc2)cc1 (stereo not given),"inconclusive: 126 µM [inhibitor, single point]",
COc1ccc(S(=O)(=O)N(CC(=O)O)c2ccccc2)cc1,"inconclusive: 0.398 µM [inhibitor, full curve, poor fit]",
O=S(=O)(Nc1nc2ccccc2nc1-[n+]1cccc(N=C([O-])c2ccc(Cl)cc2)c1)c1ccccc1,"inconclusive: 12.6 µM [inhibitor, full curve]",
Cc1ccc(C2c3[nH]c4ccccc4c3CCN2C(=O)c2ccc(N(C)C)cc2)cc1 (stereo not given),"inconclusive: 100 µM [inhibitor, partial curve, poor fit]",
CN1C2CCC1CC(OC(c1ccccc1)c1ccccc1)C2 (stereo not given),,inactive: 4.03%
COc1ccc(Br)cc1CN1CCCC(C(=O)N2CCCCCC2)C1 (stereo not given),"inconclusive: 28.2 µM [inhibitor, partial curve, poor fit]",
COc1cccc(C(=O)N2CCN(Cc3ccccn3)CC2)c1OC,"inconclusive: 0.199 µM [inhibitor, full curve, poor fit]",
CSCC[C@@H](C(=O)O)N1Cc2ccccc2C1=O,"inconclusive: 79.4 µM [inhibitor, partial curve, poor fit]",
COc1ccc(NC(=O)N2CCC3(CC2)CC(N(C(=O)NC(C)C)C2CC2)CCO3)cc1 (stereo not given),"inconclusive: 44.7 µM [inhibitor, partial curve, poor fit]",
N#Cc1nc(Cc2cccc3ccccc23)oc1NCCCN1CCOCC1,,inactive: 10.6%
Cc1ccc(C)c(OCCCCN2CCCCC2)c1,"inconclusive: 0.794 µM [inhibitor, full curve, poor fit]",
COc1ccc(C(NC(C)=O)c2cc(Cl)c3cccnc3c2O)cc1OC (stereo not given),,inactive: -11.5%
CSc1ccc(CN2CCC(C)(Oc3cccc(F)c3)C2)cc1 (stereo not given),"inconclusive: 100 µM [inhibitor, single point]",
O=C1[C@H]2[C@H](C=CC[C@H]2C(=O)N2CCN(c3ccccc3)CC2)CCN1Cc1ccc(Cl)c(Cl)c1,"inconclusive: 5.62 µM [inhibitor, partial curve, poor fit]",

# Filtered by structure, the compounds so far with two or more sulfur atoms.
Structure (SMILES),Potency,"activity change, negative = inhibition"
CCOc1ccc2c(c1)nc(SCC(=O)c1ccc(Br)s1)n2C,"inconclusive: 10 µM [inhibitor, full curve, poor fit]",
Cc1ccc(NC(=S)NCC(C)CSc2ccc(Cl)cc2)cc1 (stereo not given),"inconclusive: 126 µM [inhibitor, single point]",
